Data from the supplement of paper PMC10849652.
This is one part of the list.

Protein sequences, listed by entry. Tags and fused reporters are not part of them. Lines headed by an entry give the natural chain unless they say otherwise; changes in a name come on top.
UniProt Q9UNL2: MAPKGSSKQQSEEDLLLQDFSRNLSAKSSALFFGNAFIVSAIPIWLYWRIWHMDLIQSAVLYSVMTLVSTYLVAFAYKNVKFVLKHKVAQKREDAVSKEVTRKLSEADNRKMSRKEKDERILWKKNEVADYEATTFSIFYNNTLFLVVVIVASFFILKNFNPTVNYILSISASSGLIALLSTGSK
UniProt Q9BXP5: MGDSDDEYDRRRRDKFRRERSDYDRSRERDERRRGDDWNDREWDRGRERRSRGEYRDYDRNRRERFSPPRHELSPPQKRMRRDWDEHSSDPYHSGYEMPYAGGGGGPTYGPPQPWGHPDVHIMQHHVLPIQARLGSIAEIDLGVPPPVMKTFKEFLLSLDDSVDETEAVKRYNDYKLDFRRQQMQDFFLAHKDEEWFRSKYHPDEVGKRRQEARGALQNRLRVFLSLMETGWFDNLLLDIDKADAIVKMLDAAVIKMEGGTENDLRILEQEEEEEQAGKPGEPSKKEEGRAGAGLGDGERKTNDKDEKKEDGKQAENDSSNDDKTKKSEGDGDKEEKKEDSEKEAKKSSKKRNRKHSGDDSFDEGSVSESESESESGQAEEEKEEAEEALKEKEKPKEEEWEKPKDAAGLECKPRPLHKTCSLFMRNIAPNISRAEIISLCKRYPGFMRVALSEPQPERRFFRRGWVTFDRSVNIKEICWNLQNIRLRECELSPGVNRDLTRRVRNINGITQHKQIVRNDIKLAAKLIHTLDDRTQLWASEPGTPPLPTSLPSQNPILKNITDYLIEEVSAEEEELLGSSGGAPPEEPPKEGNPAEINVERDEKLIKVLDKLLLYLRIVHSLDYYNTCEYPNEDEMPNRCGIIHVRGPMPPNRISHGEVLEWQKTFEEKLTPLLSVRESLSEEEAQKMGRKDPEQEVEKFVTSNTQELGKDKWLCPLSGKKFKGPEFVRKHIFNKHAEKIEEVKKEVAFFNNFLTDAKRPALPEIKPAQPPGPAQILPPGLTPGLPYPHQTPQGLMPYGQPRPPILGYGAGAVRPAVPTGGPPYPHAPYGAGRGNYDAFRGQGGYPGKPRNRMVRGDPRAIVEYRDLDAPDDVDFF
UniProt Q01082, whole entry, looked up: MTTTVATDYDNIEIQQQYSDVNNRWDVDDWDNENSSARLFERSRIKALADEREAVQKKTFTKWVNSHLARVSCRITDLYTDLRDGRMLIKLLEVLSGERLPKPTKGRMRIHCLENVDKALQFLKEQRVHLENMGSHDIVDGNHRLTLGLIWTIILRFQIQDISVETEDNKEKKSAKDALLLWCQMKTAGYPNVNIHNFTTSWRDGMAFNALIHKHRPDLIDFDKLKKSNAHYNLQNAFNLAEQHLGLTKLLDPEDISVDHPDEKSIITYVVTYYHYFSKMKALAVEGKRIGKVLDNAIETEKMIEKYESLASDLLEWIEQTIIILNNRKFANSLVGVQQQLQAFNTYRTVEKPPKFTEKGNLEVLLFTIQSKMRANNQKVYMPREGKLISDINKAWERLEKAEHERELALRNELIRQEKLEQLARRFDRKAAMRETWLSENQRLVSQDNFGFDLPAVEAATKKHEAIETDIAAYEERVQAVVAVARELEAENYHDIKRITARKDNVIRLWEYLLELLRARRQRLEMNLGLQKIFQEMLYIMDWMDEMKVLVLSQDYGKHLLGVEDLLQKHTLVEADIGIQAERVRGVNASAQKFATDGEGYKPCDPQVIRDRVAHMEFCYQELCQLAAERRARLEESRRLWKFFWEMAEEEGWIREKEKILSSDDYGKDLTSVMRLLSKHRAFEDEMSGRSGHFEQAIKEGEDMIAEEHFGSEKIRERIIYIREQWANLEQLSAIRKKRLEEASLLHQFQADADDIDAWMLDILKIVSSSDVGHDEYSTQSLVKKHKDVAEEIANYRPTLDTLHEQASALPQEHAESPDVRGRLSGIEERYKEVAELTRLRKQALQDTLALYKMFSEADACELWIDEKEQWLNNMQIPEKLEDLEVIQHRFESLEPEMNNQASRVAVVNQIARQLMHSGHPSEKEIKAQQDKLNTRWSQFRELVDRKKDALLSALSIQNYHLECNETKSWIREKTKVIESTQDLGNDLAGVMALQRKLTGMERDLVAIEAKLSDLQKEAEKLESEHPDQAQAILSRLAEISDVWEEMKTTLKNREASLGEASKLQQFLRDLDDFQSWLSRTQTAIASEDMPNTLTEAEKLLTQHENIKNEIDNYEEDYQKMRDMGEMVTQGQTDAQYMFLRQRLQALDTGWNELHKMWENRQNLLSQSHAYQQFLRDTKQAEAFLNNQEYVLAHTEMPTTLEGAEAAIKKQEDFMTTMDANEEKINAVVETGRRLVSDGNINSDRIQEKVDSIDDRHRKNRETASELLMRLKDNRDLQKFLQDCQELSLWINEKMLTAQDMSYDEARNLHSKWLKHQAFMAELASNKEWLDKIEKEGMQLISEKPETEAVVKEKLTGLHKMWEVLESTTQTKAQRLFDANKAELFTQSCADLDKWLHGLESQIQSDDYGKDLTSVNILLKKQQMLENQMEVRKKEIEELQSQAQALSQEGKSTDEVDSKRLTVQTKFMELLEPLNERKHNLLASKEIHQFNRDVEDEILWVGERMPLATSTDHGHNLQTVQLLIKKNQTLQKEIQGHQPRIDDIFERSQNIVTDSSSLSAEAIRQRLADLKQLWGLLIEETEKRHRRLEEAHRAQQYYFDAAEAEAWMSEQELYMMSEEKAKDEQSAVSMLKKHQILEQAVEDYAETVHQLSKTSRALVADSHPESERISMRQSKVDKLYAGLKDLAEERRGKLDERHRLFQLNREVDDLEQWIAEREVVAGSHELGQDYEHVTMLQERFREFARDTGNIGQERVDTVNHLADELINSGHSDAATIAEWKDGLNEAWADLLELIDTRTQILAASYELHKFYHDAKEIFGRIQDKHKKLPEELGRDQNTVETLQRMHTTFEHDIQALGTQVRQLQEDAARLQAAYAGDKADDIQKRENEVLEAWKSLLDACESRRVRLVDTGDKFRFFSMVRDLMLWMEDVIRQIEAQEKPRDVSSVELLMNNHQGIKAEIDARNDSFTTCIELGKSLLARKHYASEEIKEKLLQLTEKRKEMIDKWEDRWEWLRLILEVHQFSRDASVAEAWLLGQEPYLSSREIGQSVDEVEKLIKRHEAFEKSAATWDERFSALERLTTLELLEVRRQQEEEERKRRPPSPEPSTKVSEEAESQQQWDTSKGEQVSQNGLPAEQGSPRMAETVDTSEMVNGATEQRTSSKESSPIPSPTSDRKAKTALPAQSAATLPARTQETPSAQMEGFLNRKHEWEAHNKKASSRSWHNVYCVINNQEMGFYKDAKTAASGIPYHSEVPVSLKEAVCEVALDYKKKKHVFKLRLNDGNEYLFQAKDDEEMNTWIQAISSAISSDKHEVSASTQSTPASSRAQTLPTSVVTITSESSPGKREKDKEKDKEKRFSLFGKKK
UniProt P09132: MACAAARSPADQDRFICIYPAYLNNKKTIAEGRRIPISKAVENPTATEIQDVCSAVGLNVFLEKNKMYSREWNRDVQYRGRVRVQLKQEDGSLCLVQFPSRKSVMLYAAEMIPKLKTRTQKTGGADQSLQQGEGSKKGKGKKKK
UniProt O76094: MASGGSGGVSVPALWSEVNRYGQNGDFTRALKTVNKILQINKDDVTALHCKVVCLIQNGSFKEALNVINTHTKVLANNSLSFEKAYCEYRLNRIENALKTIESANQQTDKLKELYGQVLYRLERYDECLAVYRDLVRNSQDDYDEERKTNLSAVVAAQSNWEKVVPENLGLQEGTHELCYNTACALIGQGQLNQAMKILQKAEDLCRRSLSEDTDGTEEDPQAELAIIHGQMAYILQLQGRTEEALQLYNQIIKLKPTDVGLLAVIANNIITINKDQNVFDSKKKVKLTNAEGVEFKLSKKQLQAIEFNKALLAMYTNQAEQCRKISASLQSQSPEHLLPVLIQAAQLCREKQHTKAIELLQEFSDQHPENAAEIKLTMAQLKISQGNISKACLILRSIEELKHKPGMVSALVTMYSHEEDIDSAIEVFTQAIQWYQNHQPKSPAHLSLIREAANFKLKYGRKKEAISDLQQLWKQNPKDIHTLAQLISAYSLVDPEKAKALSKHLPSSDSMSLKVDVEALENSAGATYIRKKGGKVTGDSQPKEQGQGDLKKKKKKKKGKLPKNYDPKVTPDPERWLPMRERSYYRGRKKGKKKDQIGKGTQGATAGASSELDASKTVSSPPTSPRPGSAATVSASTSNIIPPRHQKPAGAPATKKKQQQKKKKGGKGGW
UniProt P84103: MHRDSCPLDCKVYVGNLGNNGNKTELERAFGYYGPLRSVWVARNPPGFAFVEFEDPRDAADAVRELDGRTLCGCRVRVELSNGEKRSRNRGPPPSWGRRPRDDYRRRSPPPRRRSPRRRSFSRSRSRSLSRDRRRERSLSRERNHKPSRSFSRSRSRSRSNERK
UniProt P50502: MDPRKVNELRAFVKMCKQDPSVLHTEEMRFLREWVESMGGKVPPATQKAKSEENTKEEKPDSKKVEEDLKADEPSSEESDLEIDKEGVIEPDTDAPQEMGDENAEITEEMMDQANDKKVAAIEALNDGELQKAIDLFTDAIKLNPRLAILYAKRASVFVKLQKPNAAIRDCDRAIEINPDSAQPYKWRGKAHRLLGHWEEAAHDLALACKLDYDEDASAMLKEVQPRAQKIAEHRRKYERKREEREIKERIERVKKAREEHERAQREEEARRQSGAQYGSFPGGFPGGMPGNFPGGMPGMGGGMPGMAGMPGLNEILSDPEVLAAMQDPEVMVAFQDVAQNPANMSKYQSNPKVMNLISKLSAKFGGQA
UniProt Q16629: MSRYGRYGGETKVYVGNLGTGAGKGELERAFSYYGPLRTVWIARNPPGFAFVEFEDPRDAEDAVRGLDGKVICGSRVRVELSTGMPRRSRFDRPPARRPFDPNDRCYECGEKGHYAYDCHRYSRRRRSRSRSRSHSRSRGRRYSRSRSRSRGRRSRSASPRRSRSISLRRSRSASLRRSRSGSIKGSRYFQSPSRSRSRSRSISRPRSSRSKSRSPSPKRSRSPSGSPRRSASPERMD
UniProt Q05519: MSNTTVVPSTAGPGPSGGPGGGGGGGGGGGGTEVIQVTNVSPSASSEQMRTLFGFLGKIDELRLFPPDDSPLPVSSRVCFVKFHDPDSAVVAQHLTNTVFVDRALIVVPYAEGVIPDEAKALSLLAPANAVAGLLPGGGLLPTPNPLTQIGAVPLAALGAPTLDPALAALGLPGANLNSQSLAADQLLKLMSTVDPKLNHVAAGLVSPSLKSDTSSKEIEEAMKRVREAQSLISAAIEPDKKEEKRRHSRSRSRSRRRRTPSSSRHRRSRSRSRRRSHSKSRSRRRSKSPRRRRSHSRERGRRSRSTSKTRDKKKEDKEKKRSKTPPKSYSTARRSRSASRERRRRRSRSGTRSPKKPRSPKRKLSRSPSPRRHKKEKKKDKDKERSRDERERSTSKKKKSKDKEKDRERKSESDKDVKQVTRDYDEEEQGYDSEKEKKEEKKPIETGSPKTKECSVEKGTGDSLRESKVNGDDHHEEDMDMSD
UniProt Q8WW59: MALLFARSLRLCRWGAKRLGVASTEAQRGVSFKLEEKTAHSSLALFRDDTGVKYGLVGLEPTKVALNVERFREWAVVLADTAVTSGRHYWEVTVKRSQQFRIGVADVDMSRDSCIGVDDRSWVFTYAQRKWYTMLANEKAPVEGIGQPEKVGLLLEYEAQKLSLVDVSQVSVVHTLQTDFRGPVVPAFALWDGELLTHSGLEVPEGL
UniProt Q9NUL3: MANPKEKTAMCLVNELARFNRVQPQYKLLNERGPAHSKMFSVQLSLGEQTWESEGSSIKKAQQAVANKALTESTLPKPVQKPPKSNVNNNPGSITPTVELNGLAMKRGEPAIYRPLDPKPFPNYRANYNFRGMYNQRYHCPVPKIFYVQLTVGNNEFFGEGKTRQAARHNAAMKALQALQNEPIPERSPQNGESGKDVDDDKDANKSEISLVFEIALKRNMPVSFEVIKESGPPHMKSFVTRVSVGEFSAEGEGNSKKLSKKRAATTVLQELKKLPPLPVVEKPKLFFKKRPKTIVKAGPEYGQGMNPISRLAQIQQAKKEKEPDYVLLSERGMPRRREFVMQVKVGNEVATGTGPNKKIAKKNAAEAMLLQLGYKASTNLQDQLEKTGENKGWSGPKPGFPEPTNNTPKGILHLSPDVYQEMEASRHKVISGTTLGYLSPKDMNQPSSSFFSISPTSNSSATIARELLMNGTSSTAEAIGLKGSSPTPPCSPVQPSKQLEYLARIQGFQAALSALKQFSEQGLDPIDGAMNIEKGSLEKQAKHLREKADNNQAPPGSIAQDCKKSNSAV
UniProt Q9HBM1: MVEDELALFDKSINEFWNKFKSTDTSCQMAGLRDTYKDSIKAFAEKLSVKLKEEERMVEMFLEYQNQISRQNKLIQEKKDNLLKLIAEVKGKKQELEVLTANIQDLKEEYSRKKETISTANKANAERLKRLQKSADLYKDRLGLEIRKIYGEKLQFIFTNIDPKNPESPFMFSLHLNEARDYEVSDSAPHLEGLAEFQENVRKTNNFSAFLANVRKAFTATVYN

Key:
Test in all cases: log2 fold change, soluble protein after heating vs DMSO (PISA); higher = thermal stabilisation; K562 cells, 10 uM, 30 min; active = over 0.2 and 3.5 SD of the protein, either way, in both replicates (recomputed)
[1] = compound: C1=CC=C(C=C1)[C@H](COC2=CC3=C(C=C2)NC(=O)N3)NC(=O)C4=CC=CN(C4=O)CC5=CC(=C(C=C5)F)F
In short: (§1)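 K562 cells at 2×10^6 cells/mL were exposed to 10 μM compound for 30 min, then aliquots were heated for 3 min across 48°C-58°C, pooled, and extracted in PBS containing 0.5% NP-40 at 4°C. The supernatant after 21,000xg for 90 min was taken as soluble protein and measured by TMTpro 16plex LC-MS/MS with channel sums equalised. Thermal stability is reported relative to control samples, with values from duplicates. Fold changes are given on a log2 scale.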

[2] = compound: CC1=C(SC2=C1C(=N[C@H](C3=NN=C(N32)C)CC(=O)N)C4=CC=C(C=C4)Cl)C
In short: as §1

[3] = compound: CC1=C2C(=CC=C1)N=C(N(C2=O)C3=CC=CC=C3C)CN4C=NC5=C(N=CN=C54)N
In short: as §1

[4] = compound: Cc1sc2c(c1C)C(c1ccc(Cl)cc1)=N[C@@H](CC(=O)OC(C)(C)C)c1nnc(C)n1-2
In short: as §1

[5] = compound: c1ccc([C@@H]2C[C@H]2NC2CCNCC2)cc1
In short: as §1

Measured: log2 fold change

SRPRB (UniProt Q9Y5M8)
inactive: [1] -0.005 | [2] 0.014 | [3] 0.034 | [4] -0.017 | [5] -0.016

SSR3 isoform 2 (UniProt Q9UNL2)
inactive: [1] 0.016 | [2] -0.087 | [3] -0.107 | [4] -0.078 | [5] -0.168

SPHK1 isoform 2 (UniProt Q9NYA1)
inactive: [1] -0.076 | [2] 0.089 | [3] 0.03 | [4] -0.024 | [5] -0.018

SPCS2 (UniProt Q15005)
inactive: [1] -0.011 | [2] 0.043 | [3] -0.034 | [4] -0.061 | [5] -0.031

SPECC1L (UniProt Q69YQ0)
inactive: [1] 0.021 | [2] 0.055 | [3] -0.027 | [4] -0.017 | [5] 0.024

SPTLC2 (UniProt O15270)
inactive: [1] -0.019 | [2] 0.051 | [3] 0.065 | [4] -0.051 | [5] -0.019

SPP2 (UniProt Q13103)
inactive: [1] 0.065 | [2] 0 | [3] 0.119 | [4] -0.038 | [5] -0.002

SRRT (UniProt Q9BXP5)
inactive: [1] -0.207 | [2] 0.056 | [3] 0.153 | [4] -0.024 | [5] -0.069

SPR (UniProt P35270)
inactive: [1] 0.026 | [2] 0.04 | [3] 0.031 | [4] -0.058 | [5] -0.105

SPTBN1 (UniProt Q01082)
inactive: [1] -0.002 | [2] -0.033 | [3] 0.078 | [4] 0.027 | [5] 0.013

STAT5B (UniProt P51692)
inactive: [1] 0.036 | [2] 0.08 | [3] 0.05 | [4] 0.033 | [5] 0.052

SPINDOC (UniProt Q9BUA3)
inactive: [1] 0.03 | [2] 0.02 | [3] -0.066 | [4] 0.145 | [5] 0.041

SPTAN1 isoform 2 (UniProt Q13813)
inactive: [1] 0 | [2] -0.012 | [3] 0.04 | [4] 0.016 | [5] 0.064

SRRM2 (UniProt Q9UQ35)
inactive: [1] -0.005 | [2] -0.015 | [3] 0 | [4] 0.05 | [5] 0.037

STIP1 isoform 2 (UniProt P31948)
inactive: [1] -0.005 | [2] 0.025 | [3] 0.019 | [4] -0.007 | [5] -0.007

SRP19 (UniProt P09132)
inactive: [1] -0.042 | [2] -0.033 | [3] 0.043 | [4] -0.031 | [5] 0.132

SPEN (UniProt Q96T58)
inactive: [1] 0.02 | [2] -0.066 | [3] -0.011 | [4] -0.168 | [5] 0.033

SS18 (UniProt Q15532)
inactive: [1] 0.002 | [2] 0.195 | [3] -0.106 | [4] -0.018 | [5] -0.094

SRPK2 isoform 2 (UniProt P78362)
inactive: [1] 0.05 | [2] -0.19 | [3] -0.299 | [4] 0.186 | [5] 0

SPIN1 (UniProt Q9Y657)
inactive: [1] -0.13 | [2] -0.037 | [3] 0.066 | [4] 0.022 | [5] 0.027

SRP72 (UniProt O76094)
inactive: [1] -0.068 | [2] -0.016 | [3] 0.047 | [4] 0.097 | [5] -0.016

STARD7 (UniProt Q9NQZ5)
inactive: [1] -0.018 | [2] 0.075 | [3] 0.145 | [4] 0.063 | [5] -0.017

STEAP3 isoform 2 (UniProt Q658P3)
inactive: [1] -0.011 | [2] 0 | [3] 0.022 | [4] -0.034 | [5] -0.04

SRA1 (UniProt Q9HD15)
inactive: [1] -0.023 | [2] 0.049 | [3] 0.068 | [4] -0.059 | [5] 0.015

Four neighbouring entries already listed:
SRP19 (UniProt P09132)
inactive: [1] -0.042 | [2] -0.033 | [3] 0.043 | [4] -0.031 | [5] 0.132

SPEN (UniProt Q96T58)
inactive: [1] 0.02 | [2] -0.066 | [3] -0.011 | [4] -0.168 | [5] 0.033

SS18 (UniProt Q15532)
inactive: [1] 0.002 | [2] 0.195 | [3] -0.106 | [4] -0.018 | [5] -0.094

SRPK2 isoform 2 (UniProt P78362)
inactive: [1] 0.05 | [2] -0.19 | [3] -0.299 | [4] 0.186 | [5] 0

(cont.)

STAT5A (UniProt P42229)
inactive: [1] -0.028 | [2] 0.058 | [3] 0.134 | [4] -0.006 | [5] 0.008

STARD3 (UniProt Q14849)
inactive: [1] 0.011 | [2] -0.036 | [3] 0.14 | [4] 0.066 | [5] -0.153

STAM2 (UniProt O75886)
inactive: [1] -0.015 | [2] 0.005 | [3] 0.014 | [4] 0.016 | [5] -0.001

SPPL2B (UniProt Q8TCT7)
inactive: [1] 0.039 | [2] 0.132 | [3] 0.049 | [4] 0.024 | [5] -0.022

SRSF3 (UniProt P84103)
inactive: [1] 0.099 | [2] -0.18 | [3] -0.159 | [4] 0.152 | [5] 0.055

ST13 (UniProt P50502)
inactive: [1] -0.029 | [2] 0.07 | [3] 0.039 | [4] -0.006 | [5] -0.018

SSU72 (UniProt Q9NP77)
inactive: [1] -0.057 | [2] 0.05 | [3] 0.25 | [4] -0.021 | [5] -0.063

STAG1 (UniProt Q8WVM7)
inactive: [1] 0.014 | [2] 0.067 | [3] 0.071 | [4] -0.029 | [5] -0.011

STK24 (UniProt Q9Y6E0)
inactive: [1] -0.017 | [2] 0.067 | [3] 0.055 | [4] 0.004 | [5] 0.005

SRSF7 (UniProt Q16629)
inactive: [1] 0.136 | [2] -0.171 | [3] -0.093 | [4] 0.209 | [5] 0.055

SPTA1 (UniProt P02549)
inactive: [1] -0.018 | [2] -0.053 | [3] 0.025 | [4] 0.115 | [5] 0.039

STAU1 (UniProt O95793)
inactive: [1] 0.11 | [2] -0.32 | [3] -0.4 | [4] 0.323 | [5] 0

SRSF11 (UniProt Q05519)
inactive: [1] 0.008 | [2] 0.037 | [3] 0.044 | [4] -0.082 | [5] -0.028

SPTBN4 (UniProt Q9H254)
inactive: [1] -0.058 | [2] -0.083 | [3] 0.148 | [4] 0.014 | [5] -0.001

SPRYD4 (UniProt Q8WW59)
inactive: [1] -0.023 | [2] 0.036 | [3] 0.064 | [4] 0.007 | [5] -0.032

SPARC (UniProt P09486)
inactive: [1] 0.01 | [2] 0.059 | [3] 0.025 | [4] 0 | [5] 0.139

SRGAP2 (UniProt O75044)
inactive: [1] 0.019 | [2] 0.048 | [3] 0.021 | [4] -0.02 | [5] -0.145

SPATA5L1 (UniProt Q9BVQ7)
inactive: [1] 0.05 | [2] -0.014 | [3] 0.008 | [4] -0.001 | [5] 0

STAU2 (UniProt Q9NUL3)
inactive: [1] 0.085 | [2] -0.064 | [3] -0.113 | [4] 0.352 | [5] 0.116

SPC25 (UniProt Q9HBM1)
inactive: [1] 0.009 | [2] 0.054 | [3] 0.073 | [4] -0.014 | [5] -0.043

SRSF4 (UniProt Q08170)
inactive: [1] 0.09 | [2] -0.166 | [3] -0.124 | [4] 0.073 | [5] 0.096

STAT2 (UniProt P52630)
inactive: [1] 0.161 | [2] -0.203 | [3] 0.173 | [4] 0.107 | [5] -0.077

SRI (UniProt P30626)
inactive: [1] -0.034 | [2] 0.111 | [3] 0.043 | [4] -0.093 | [5] -0.064

STAMBP (UniProt O95630)
inactive: [1] 0.007 | [2] 0.013 | [3] 0.028 | [4] -0.016 | [5] -0.001

STK11IP (UniProt Q8N1F8)
inactive: [1] 0.035 | [2] 0.026 | [3] -0.02 | [4] 0.05 | [5] -0.048

SPAST (UniProt Q9UBP0)
inactive: [1] -0.057 | [2] 0.026 | [3] 0.117 | [4] -0.016 | [5] -0.085

SPTBN2 (UniProt O15020)
inactive: [1] 0.007 | [2] -0.051 | [3] 0.065 | [4] 0.024 | [5] -0.046

SRPRA (UniProt P08240)
inactive: [1] 0.001 | [2] -0.032 | [3] 0.031 | [4] -0.061 | [5] -0.038

SPRYD7 (UniProt Q5W111)
inactive: [1] -0.02 | [2] 0.074 | [3] 0.113 | [4] -0.028 | [5] -0.049
